Data from PubChem BioAssay AID1347076 (National Center for Advancing Translational Sciences (NCATS), 2019).
Values joined by “and” are separate entries in the source; they are usually repeats but may differ in a detail not shown here. Equal values may be shown once. The whole screen tested about 400,000 compounds, of which about 13,000 (3.2%) were called active. The inconclusive results got no clear call from the source; some entries with a clear call stand among them for comparison. Calls come from the whole dose curve; as a rule, active = well fitted cell-killing curve with a large enough effect; inconclusive = small, poorly fitted or top-dose-only effect, or effect the other way; inactive = flat fitted curve, though single readings scatter. A potency beside an inconclusive call is a rough fit, not a confirmed value.

Assay: qHTS assay for MDR1-selective chemotherapeutics: Primary screen using the drug-selected MDR subline cells KB-V1; note: nearly all actives have a fitted effect of over 60% in size
Conditions: KB-V1 MDR cells viability, CellTiter-Glo, 72 h; activity change, negative = cytotoxicity: at 46.1 µM (top of the series)
How it was run: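 KB-V1, DMEM (no phenol red) + 10% FBS; cpd pin-transferred, titration series; 72 h, 37 degrees C; CellTiter-Glo, luminescence. Data normalized, curve-fit.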
% is set by controls: 0 for no effect and ±100 for the full control effect; potency is the fitted concentration of half-maximal effect.

SMILES | Potency | activity change, negative = cytotoxicity
C#CC1(O)CCC2C3CCC4=CC(=O)CCC4=C3C=CC21C (centres undefined) | active: 2.59 µM | –
CC(CC(C#N)(c1ccccc1)c1ccccc1)N1CCOCC1 (centres undefined) | inconclusive: 29.1 µM [cytotoxic, single point] | –
O=C(CCc1nnc2ccc(NCc3ccc(F)cc3)nn12)N1CCC2(CC1)OCCO2 | inconclusive: 23.1 µM [rising, single point] | –
Cc1ncoc1C(=O)NCC1=C(c2ccc(S(C)(=O)=O)cc2)C[C@@H]2CC[C@H]1N2CCOc1ccccc1 | – | inactive: 2.91%
CCOP(=O)(OCC)c1cc(CC)ccc1O | – | inactive: -7.15%
CCc1ccc(OCCCN=C(C)c2c(O)n(C)c(=O)n(C)c2=O)cc1 | inconclusive: 23.1 µM [cytotoxic, single point] | –
COC(=O)[C@@H]1N=C(c2ccc(OC)cc2)O[C@]12C(=O)N(C)c1ccc(Cl)cc12 | – | inactive: 0%
CCn1c(O)c(C=NCCN2CCOCC2)c(=O)n(CC)c1=S | inconclusive: 20.6 µM [rising, partial curve, poor fit] | –
Cc1ccsc1C(=O)C1CCCN(Cc2cnc(N3CCCC3)s2)C1 (centres undefined) | – | inactive: -6.35%
COc1ccc2c(c1OC)C(=O)O[C@@H]2[C@H]1c2cc3c(cc2CCN1C)OCO3 | inconclusive: 20.6 µM [cytotoxic, single point] | –
CC(=O)c1ccc(NC(=O)c2sc3nc4c(cc3c2N)N2CCC4CC2)cc1 | active: 23.1 µM | –
Cc1ccc(NP(=O)(Oc2ccccc2F)Oc2ccccc2F)cc1C | inconclusive: 16.4 µM [cytotoxic, single point] | –
O=C(CN1CCOCC1)Nc1ccc(Br)cc1C(=O)c1ccccc1 | – | inactive: -3.68%
CCn1nc(-c2ccccc2)nc2c(=O)n(C)c(=O)nc1-2 | – | inactive: -13.7%
CCOC(=O)C1(CCc2ccccc2)CCN(Cc2cccc3cnccc23)CC1 | inconclusive: 7.31 µM [cytotoxic, partial curve] | –
COc1cc(C2c3cc4c(c(O)c3CC3COC(=O)C32)OCO4)cc(OC)c1O (centres undefined) | active: 0.184 µM | –
CC(C)(C)c1cc(C=C(C#N)C#N)cc(C(C)(C)C)c1O | active: 1.03 µM | –
Cc1ccc(N2C(=O)NC(=O)C(CCc3ccccn3)(Cc3ccc(F)cc3)C2=O)cc1 (centres undefined) | inconclusive: 20.6 µM [cytotoxic, partial curve, poor fit] | –
O=C(COc1ccccc1)N1CCN(CCN2C(=O)c3cccc4cccc(c34)C2=O)CC1 | inconclusive: 1.46 µM [cytotoxic, full curve] | –
CCCCCC1(C(C)C)C(=O)NC(=S)NC1=O | inconclusive: 23.1 µM [cytotoxic, single point] | –
C[n+]1ccc(-c2ccncc2)cc1 | – | inactive: 13.4%
CCCCn1c(=O)c(C=Nc2cc([N+](=O)[O-])ccc2OC)c(O)n(CCCCl)c1=O | – | inactive: -6.99%
COc1ccc(C2NCc3ccc4c(c3-n3cccc32)OCO4)cc1O (centres undefined) | inconclusive: 1.16 µM [cytotoxic, full curve, poor fit] | –
Cc1ccc(-n2c(/C=C/c3ccccc3)nc3ccccc3c2=O)cc1C | – | inactive: -19.3%

SMILES | Potency | activity change, negative = cytotoxicity
CC(C)N=C(NC(C)C)N1CC1 | – | inactive: 0.543%
CCCCCCn1c(=O)c(C(=O)Nc2cccc(C)n2)c(O)c2ccccc21 | inconclusive: 2.91 µM [cytotoxic, partial curve, poor fit] | –
C[C@@H]1C[C@@H]([C@H](O)CC2CC(=O)NC(=O)C2)C(=O)[C@@H](C)C1 | active: 2.31 µM | –
CCCCN1C(=O)NC(=O)C2(Cc3c(nc4c(C)cccn4c3=O)N3CCc4ccccc4C32)C1=O (centres undefined) | active: 14.6 µM | –
COC(=O)C1=C(c2ccc(-c3ccccc3)c(F)c2)C[C@@H]2CC[C@H]1N2C(=O)NCCOc1ccc(OC)cc1 | inconclusive: 20.6 µM [cytotoxic, single point] | –
O=C(CN1CCCCC1)Nc1ccc(Br)cc1C(=O)c1ccccc1Cl | – | inactive: -7.61%
O=S(=O)(NC1CN2CCC1CC2)c1ccc(Cl)cc1 (centres undefined) | – | inactive: 6.8%
CCOC(=O)C1(CCc2ccccc2)CCN(C2CCSCC2)CC1 | inconclusive: 20.6 µM [cytotoxic, single point] | –
Cc1ccc2c(c1)C1CN(C)CCC1N2C(=O)Nc1cccc(C(F)(F)F)c1 (centres undefined) | – | inactive: -6.48%
COc1ccc2oc3c(c2c1)NC(=O)CN=C3c1ccccc1 | inconclusive: 29.1 µM [cytotoxic, single point] | –
COc1cc(C2c3cc4c(c(O)c3CC3COC(=O)C32)OCO4)cc(OC)c1OC (centres undefined) | inconclusive: 2.31 µM [cytotoxic, partial curve, poor fit] and active: 184 nM | –
C/C(=C/C=C/[C@@H](C)C(=O)O)[C@H]1CN[C@H](C(=O)O)[C@H]1CC(=O)O | inconclusive: 23.1 µM [rising, single point] | –
COC(=O)C1=C(c2ccc(Cl)c(C(F)(F)F)c2)C[C@@H]2CC[C@H]1N2C(=O)NCCOc1ccccc1Cl | inconclusive: 16.4 µM [cytotoxic, partial curve, poor fit] | –
C[N+]12CCC(CC1)C(=C(c1ccccc1)c1ccccc1)C2 | – | inactive: 26.3%
CCOP(=O)(OCC)c1ccc(OP(=O)(c2cccc([N+](=O)[O-])c2)c2cccc([N+](=O)[O-])c2)cc1 | – | inactive: 2.1%
COc1cc([N+](=O)[O-])cc([N+](=O)[O-])c1N | – | inactive: 0.709%
Cc1cccc(-n2c(/C=C/c3cccc4ccccc34)nc3ccccc3c2=O)c1 | inconclusive: 8.2 µM [cytotoxic, partial curve] | –
Cc1ccccc1NP(=O)(Oc1ccccc1F)Oc1ccccc1F | – | inactive: -27.4%
CC(=O)O[C@@]12CO[C@@H]1C[C@H](O)[C@@]1(C)C(=O)[C@H](O)C3=C(C)[C@@H](OC(=O)[C@H](O)[C@@H](NC(=O)c4ccccc4)c4ccccc4)C[C@@](O)([C@@H](OC(=O)c4ccccc4)C12)C3(C)C (some centres undefined) | active: 8.2 µM | –
NC(=O)c1ccc(NC(=O)c2cccn(Cc3ccccc3)c2=O)cc1 | inconclusive: 0.116 µM [cytotoxic, full curve] | –
Cc1ccccc1-c1nc(CS(=O)CC(=O)N2CCC3(CC2)OCCO3)c(C)o1 (centres undefined) | active: 13 µM | –
COc1ccc(NP(=O)(Oc2ccccc2OC)Oc2ccccc2OC)cc1 | inconclusive: 16.4 µM [cytotoxic, partial curve] | –
Cc1ccc(-c2nc3ccccc3c(=O)n2-c2ncccc2C)cc1 | inconclusive: 9.2 µM [cytotoxic, partial curve] | –
COc1ccc2c(c1)C(NC(C)=O)CCc1cc(OC)c(OC)c(OC)c1-2 (centres undefined) | active: 0.366 µM | –
COc1ccc(CNC(=O)C(NC(C)=O)C(C)C)cc1OC (centres undefined) | inconclusive: 3.66 µM [rising, full curve] | –

No new results follow: entries from further up.
SMILES | Potency | activity change, negative = cytotoxicity
CC(=O)O[C@@]12CO[C@@H]1C[C@H](O)[C@@]1(C)C(=O)[C@H](O)C3=C(C)[C@@H](OC(=O)[C@H](O)[C@@H](NC(=O)c4ccccc4)c4ccccc4)C[C@@](O)([C@@H](OC(=O)c4ccccc4)C12)C3(C)C (some centres undefined) | active: 8.2 µM | –
NC(=O)c1ccc(NC(=O)c2cccn(Cc3ccccc3)c2=O)cc1 | inconclusive: 0.116 µM [cytotoxic, full curve] | –
Cc1ccccc1-c1nc(CS(=O)CC(=O)N2CCC3(CC2)OCCO3)c(C)o1 (centres undefined) | active: 13 µM | –

Continued:

SMILES | Potency | activity change, negative = cytotoxicity
COc1cccc(CN2CC=C(c3ccc(F)cc3)CC2)c1 | – | inactive: 14.6%
CCOc1ccc(CN2C(=O)c3ccccc3Sc3ccc(C(=O)N4CCC5(CC4)OCCO5)cc32)cc1 | – | inactive: 17.3%
CCN(C(=O)COC(=O)c1cc(C)n(C2CC2)c1C)c1ccccc1 | active: 2.59 µM | –
CN(C(=O)Oc1ccc(Cl)c2cccnc12)c1ccccc1 | active: 18.4 µM | –
CCCCOC(=O)c1ccccc1C(=O)OCCCC | inconclusive: 2.59 µM [rising, full curve] | –
COc1ccc2c(c1O)-c1cccc3c1[C@@H](C2)N(C)CC3 | inconclusive: 7.31 µM [cytotoxic, partial curve] | –
CCn1cc(C(=O)NCc2ccccc2)c2ccccc21 | – | inactive: 14.6%
CNC(=O)OCCc1n(C)cc[n+]1C | inconclusive: 18.4 µM [rising, single point] | –
CCCCCn1c(=O)c(C(=O)NCc2ccncc2)c(O)c2ccccc21 | active: 2.59 µM | –
Cc1cccc(OC(=O)N2CCOCC2)c1 | inconclusive: 2.91 µM [rising, partial curve] | –
Clc1ccc2nc3c(c(-c4ccccc4)c2c1)CNCC3 | inconclusive: 11.6 µM [cytotoxic, partial curve] | –
CC(c1ccccc1)(c1ccccc1)c1ccncc1 | – | inactive: -22.6%
O=C(c1cccc2ccccc12)C1CCCN(Cc2ccon2)C1 (centres undefined) | – | inactive: -4.64%
O=C(c1ccccc1)C(Cc1ccccc1)N1CCOCC1 (centres undefined) | active: 18.4 µM | –
COC(=O)C1=C(c2c(C)noc2C)C[C@@H]2CC[C@H]1N2C(=O)NCCNC(C)=O | – | inactive: -3.68%
C[C@H]1O[C@@H](O[C@H]2[C@@H](O)C[C@H](O[C@H]3[C@@H](O)C[C@H](O[C@H]4CC[C@@]5(C)[C@H](CC[C@@H]6[C@@H]5CC[C@]5(C)[C@@H](C7=CC(=O)OC7)CC[C@]65O)C4)O[C@@H]3C)O[C@@H]2C)C[C@H](O)[C@@H]1O | active: 0.184 µM | –
Cc1ccc(OP(=O)(NC(C)c2ccccc2)Oc2ccc(C)cc2)cc1 (centres undefined) | inconclusive: 7.31 µM [cytotoxic, partial curve, poor fit] | –
CCCCOc1nc2ccccc2c(=O)n1-c1ccccc1 | active: 16.4 µM | –
CC(CC(C)(C)N1CC1)=NNC(=O)Nc1cccc2ccccc12 | inconclusive: 16.4 µM [cytotoxic, partial curve, poor fit] | –
C/C(CCc1c[nH]c2ccccc12)=N\O | – | inactive: 2.16%
O=c1ccc2cc3ccoc3c(O)c2o1 | – | inactive: 0%
O=C(CN1CC(c2ccccc2)CC1=O)Nc1cccc(F)c1 (centres undefined) | – | inactive: -20.7%
CCOC(C(=O)OCCCN(CC)CC)(c1ccccc1)c1ccccc1 | – | inactive: -17.1%
